The text below walks through data of PubChem BioAssay AID2685 (National Center for Advancing Translational Sciences (NCATS), 2010).

Molecules are shown by their SMILES. The list shows a part of the results. The main result of the screen is listed elsewhere. These columns were measured beside it and carry no call. Compounds called inactive in the main read-out are mostly missing here. The note in brackets gives the kind of curve behind each potency; many fits are weak.

This assay can be described thus: qHTS Assay for Lipid Storage Modulators in Drosophila S3 Cells.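 For cell number change: cells counted by Cell Tracker Red CMTPX staining in the red channel.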 The settings on record: BODIPY lipid droplet fluorescence, 18-24 h; for cell number change: measured here: cell count max response, cells fed with added oleic acid. An outline of the steps:
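Drosophila S3 cells got compounds at several concentrations plus oleic acid (400 uM solution). Laser-scanning cytometry with 488 nm excitation read lipid droplets at 500-530 nm and cells at 575-640 nm. Percent activity was relative to 20 uM Triacsin C.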
In general terms: Quantitative high-throughput screening tests each substance at several concentrations.

Where [1] appears, read: measured here: cell number channel AC50, cells fed with added oleic acid.
Where [2] appears, read: measured here: lipid fluorescence (Fed channel) AC50, cells fed with added oleic acid.

Consider `COCCCNc1nc(SCc2ccccc2)nc2sc3c(c12)CCC3`, for which the cell number change is -15.5%. For `O=C(NCc1ccc(F)cc1)C(=O)NCC1OCCCN1S(=O)(=O)c1cccs1` (stereo unspecified), the cell number change stood at 44.2%. In addition, under setting [1], the AC50 (as a rule, the midpoint of the concentration-response curve, whichever way the signal moves) is 0.794 µM [rising, full curve, poor fit]. In addition, under setting [2], the AC50 was 12.6 µM [rising, partial curve].

As for `COc1cc(NC(=S)N2CCN(S(=O)(=O)c3ccc(C)cc3)CC2)cc(OC)c1`, the cell number change is 29.8%. In addition, under setting [1], the concentration at half-maximal activity (AC50) was 3.66 µM [rising, full curve, poor fit]. Further, the AC50 under setting [2] was 29.1 µM [rising, single point]. As for `O=C(NCc1cc(F)cc(C(F)(F)F)c1)C1CCC(=O)N(C2CCCC2)C1` (stereo unspecified), the concentration at half-maximal activity (AC50) under setting [2] was 29.1 µM [falling, single point].

On to `COc1cccc(N2CC(C)Cn3c2nc2c3c(=O)n(CCN3CCOCC3)c(=O)n2C)c1` (stereo unspecified), for which the cell number change turned out to be 20.9%. In addition, under setting [2], the AC50 is 20.6 µM [rising, single point].

As to `O=c1oc2ccc(C#CC3(O)CCCCC3)cc2cc1-n1cc(C2(O)CCCCC2)nn1`, the cell number change was -1.24%. Besides, the AC50 under setting [2] is 0.116 µM [rising, full curve, poor fit]. For the molecule `COc1ccccc1N1CCN(C(=O)CNS(=O)(=O)c2ccc(Br)s2)CC1`, the cell number change amounted to 14%. Further, the AC50 under setting [2] is 29.1 µM [rising, single point]. As to `COC(F)(C(=O)Nc1ccc2c(c1)C(=O)NC2=O)C(F)(F)F` (stereo unspecified), the cell number change was -12%. Moreover, under setting [2], the AC50 is 32.6 µM [falling, single point].

Take `CN(CC(=O)Nc1ccccc1N1CCOCC1)CC(=O)Nc1ccc(F)c(F)c1F`: the cell number change turned out to be 35.3%. Also, the AC50 under setting [2] was 29.1 µM [rising, single point]. Regarding `O=C(CN1C(=O)N/C(=C\c2ccccc2OCc2ccc(C(=O)O)cc2)C1=O)Nc1ccccc1F`, the cell number change is -26.7%. For `Cc1cc(OCC(=O)NCCCn2ccnc2)c2c(C)cc(=O)oc2c1`, the cell number change amounted to 34%. Further, under setting [1], the concentration at half-maximal activity (AC50) was 29.1 µM [rising, single point].

Take `Clc1ccccc1CSC1=NCCN1`: the cell number change was -18.2%. Besides, the AC50 under setting [2] is 29.1 µM [falling, single point]. Turning to `O=C(N/N=C/c1ccncc1)c1nn(Cc2ccccc2)c(=O)c2ccccc12`, the cell number change was 49.4%. In addition, under setting [1], the concentration at half-maximal activity (AC50) is 1.3 µM [rising, partial curve].

In the case of `CCc1ccccc1NC(=O)c1onc(C)c1Cl`, the cell number change was found to be 11.9%. Also, the half-maximal activity concentration (AC50) under setting [2] was 0.13 µM [rising, full curve, poor fit]. For `O=C(CCCc1nc(-c2ccccc2)no1)NC1CCCCC1`, the cell number change stood at 27.6%.

As for `COC(=O)c1cc(=O)n(CCc2ccccc2F)c(=Nc2ccc(F)c(Cl)c2)s1`, under setting [2], the concentration at half-maximal activity (AC50) was 2.31 µM [rising, single point]. Take `Cc1cc(C)c2cc(C#N)c(SCC(=O)NCc3ccco3)nc2c1`: the cell number change is -2.23%. The half-maximal activity concentration (AC50) under setting [2] is 2.91 µM [rising, partial curve]. As for `CCc1nnc(N2C(=O)c3cccc4cccc(c34)C2=O)s1`, the half-maximal activity concentration (AC50) under setting [1] is 2.06 µM [rising, partial curve] and the AC50 under setting [2] is 0.58 µM [rising, single point]. As for `O=C1Nc2ccccc2C(=O)N2[C@H](c3ccccc3)[C@@H]3C(=O)N(Cc4ccccc4)C(=O)[C@@H]3[C@H]12`, under setting [2], the AC50 was 0.731 µM [rising, single point]. Turning to `O=C(Nc1ccc2c(c1)C(=O)NC2=O)c1ccccc1Cl`, the cell number change turned out to be 9.28%. For `NS(=O)(=O)c1ccc(CNC(=O)c2cc(-c3cccnc3)nc3ccccc23)cc1`, the cell number change turned out to be 10.4%. Besides, the concentration at half-maximal activity (AC50) under setting [2] is 14.6 µM [rising, partial curve]. Regarding `COC(=O)Nc1nnc(/C=C/c2ccccc2)s1`, the cell number change came out at 2.66%. In addition, the concentration at half-maximal activity (AC50) under setting [2] is 13 µM [rising, partial curve, poor fit]. In the case of `COc1ccc(NC(=S)NNC(=O)c2ccc(S(=O)(=O)N3CCOCC3)cc2)cc1`, under setting [1], the AC50 was 1.16 µM [falling, single point]. Take `COc1ccc(Cl)cc1S(=O)(=O)NCc1ccncc1`: the cell number change stood at 23.9%. The AC50 under setting [2] was 0.00517 µM [rising, full curve]. In the case of `O=C(N/N=C/c1cccs1)c1[nH]ncc1Br`, the cell number change came to 18.8%. Besides, the AC50 under setting [2] was 5.8 µM [falling, partial curve, poor fit].

`CCn1ncc(S(=O)(=O)Nc2cccnc2)c1C`: the cell number change amounted to 18.1%. Consider `N=C(N)CCCOc1ccccc1-c1ccccc1`, for which the cell number change was -5.16%. Regarding `Cc1ccc(Nc2nc(Nc3ccc(C)cc3)nc(SC3=NCCS3)n2)cc1`, the half-maximal activity concentration (AC50) under setting [2] is 0.58 µM [rising, single point]. As for `Cc1ccc(CN2CCN(C(=O)CCc3ccccc3)CC2)cc1`, the cell number change was 9.68%. On to `O=C(CSc1nnc(-c2ccccc2O)o1)Oc1ccc(Br)cc1`, for which the cell number change was -52.5%. For the same molecule, under setting [1], the concentration at half-maximal activity (AC50) was 29.1 µM [falling, single point]. Also, the AC50 under setting [2] is 18.4 µM [falling, single point]. Consider `COC(=O)c1ccc(NC(=S)Nc2ccc3ccccc3c2)cc1`, for which the cell number change was found to be 27.1%. Besides, the concentration at half-maximal activity (AC50) under setting [2] was 29.1 µM [rising, single point]. For `CC1(C)Cc2c(c(=S)nc(-c3ccccc3)n2CCCN2CCOCC2)CO1`, the half-maximal activity concentration (AC50) under setting [1] is 6.51 µM [falling, single point].

Take `CCOC(=O)c1c(NC(=O)CN2C(=O)NC3(CCCCCC3)C2=O)sc(C)c1-c1ccc(C)cc1`: the cell number change is -62.9%. Moreover, the concentration at half-maximal activity (AC50) under setting [1] is 14.6 µM [falling, partial curve]. The concentration at half-maximal activity (AC50) under setting [2] is 6.51 µM [rising, partial curve]. In the case of `CCc1ccc(NC(=O)CC2S/C(=N/N=C3CCCCCC3)NC2=O)cc1` (stereo unspecified), the cell number change was -13.5%. Moreover, under setting [2], the AC50 was 29.1 µM [rising, single point]. Consider `OCCSc1ncnc2c1oc1ccccc12`, for which the cell number change was -2.3%. As for `Cn1cc(C(=O)Nc2ccccn2)c(=O)c2ccccc21`, the cell number change is -6.94%. On to `Nc1nnc(CSc2ccc(Cl)cc2)s1`, for which the cell number change worked out at 17.4%. Also, under setting [1], the half-maximal activity concentration (AC50) was 3.26 µM [rising, partial curve]. Also, the half-maximal activity concentration (AC50) under setting [2] was 2.06 µM [rising, partial curve]. Consider `Cc1ccc(S(=O)(=O)N2CCCCC2)cc1NC(=O)COc1ccccc1F`, for which the cell number change came to 47.9%. The half-maximal activity concentration (AC50) under setting [1] was 10.3 µM [rising, partial curve]. In addition, the concentration at half-maximal activity (AC50) under setting [2] was 0.731 µM [rising, partial curve]. Consider `CN(CCOC(=O)c1cccc(F)c1)Cc1ccccc1`, for which the cell number change was -3.98%. Besides, the AC50 under setting [1] is 3.66 µM [falling, single point]. The AC50 under setting [2] is 6.51 µM [falling, single point]. For `CCC(C)C1Nc2ccc(C(=O)NCCc3ccc(OC)c(OC)c3)cc2NC1=O` (stereo unspecified), the cell number change is 7.69%. Besides, the AC50 under setting [2] was 25.9 µM [falling, partial curve, poor fit]. With `COc1ccccc1-c1noc(CSc2nc(C)cc(=O)[nH]2)n1`, the cell number change was 3.87%. The AC50 under setting [2] was 2.31 µM [rising, partial curve]. `CCCCOc1cccc(C(=O)NNC(=S)NC2CCCCC2)c1`: the cell number change is -33.5%. In addition, the AC50 under setting [1] is 29.1 µM [falling, single point]. Besides, the AC50 under setting [2] was 20.6 µM [falling, single point]. On to `Cc1cc(C(=O)COc2ccc3ccc(=O)oc3c2)c(C)n1C`, for which the cell number change came out at 110%. Also, under setting [1], the AC50 was 16.4 µM [rising, partial curve]. With `COc1cc(C(=O)NCc2ccccc2)cc(Br)c1OC`, the cell number change is -1.09%. For the same molecule, under setting [2], the AC50 is 1.46 µM [rising, partial curve, poor fit].

`Cc1cccc(OCC(=O)OC(C)C(=O)Nc2ccc(S(=O)(=O)N3CCCCC3)cc2)c1` (stereo unspecified): the cell number change came out at 0.209%. Further, the concentration at half-maximal activity (AC50) under setting [2] is 6.51 µM [falling, single point]. As for `CCCCOC(=O)C1C2C=C[C@]3(CN(CCCOC)C(=O)[C@H]13)O2` (stereo partly specified), the cell number change worked out at 4.24%. Turning to `CCN1CCN(C(=O)CCc2nnc3ccc(N4CCN(c5cccc(OC)c5)CC4)nn23)CC1`, the cell number change is -6.87%. In addition, under setting [2], the half-maximal activity concentration (AC50) was 1.3 µM [falling, partial curve]. Turning to `Cc1nc(NC(=O)CSc2nnc(C)n2CC2CCCO2)sc1C` (stereo unspecified), the cell number change stood at 31%. Moreover, the AC50 under setting [1] is 6.51 µM [rising, partial curve]. In the case of `Cc1ccc(C2C(C#N)=C(N)Oc3n[nH]c(-c4cccs4)c32)cc1` (stereo unspecified), the cell number change was -48.8%. Besides, the AC50 under setting [1] is 14.6 µM [falling, partial curve]. The AC50 under setting [2] was 16.4 µM [falling, single point].

Turning to `CN(C(=O)CSc1ccncc1)C1CCCN(Cc2ccccc2F)C1` (stereo unspecified), the cell number change was -36.9%. Besides, the concentration at half-maximal activity (AC50) under setting [1] is 2.91 µM [falling, partial curve]. For the molecule `COc1ccc2cc3cc(C(=O)N4CCN(C5CCCCC5)CC4)oc3nc2c1`, the cell number change is -19.8%. With `COCn1c(-c2cccc(Br)c2)nc2ccccc21`, the cell number change is -8.8%. For the same molecule, the AC50 under setting [2] is 6.51 µM [rising, single point].

Regarding `N#CC1=C(N)Oc2cc(N)ccc2C1c1ccccc1Cl` (stereo unspecified), the cell number change is -4.21%. Consider `Cc1nnc(SCC(=O)NC2CCCCCC2)n1N`, for which the cell number change was -18.4%. On to `COc1cccc(N2CCN(CC(=O)NC3=Nc4ccccc4N=C(C)C3c3ccccc3)CC2)c1` (stereo unspecified), for which the cell number change worked out at 4.65%. For the same molecule, the AC50 under setting [2] was 0.058 µM [falling, full curve, poor fit]. Turning to `Cc1cc(C(=O)NCC(=O)OCC(=O)N(C2CCCCC2)C2CCCCC2)ccc1[N+](=O)[O-]`, the cell number change was 4.31%. Besides, under setting [2], the AC50 was 0.00461 µM [falling, full curve, poor fit]. For the molecule `CCN(CC)c1ccc(/C=N/NC(=O)CNC(=O)/C=C/c2ccco2)cc1`, the cell number change stood at 7.62%. With `Cc1ccc(NC(=O)NC(=O)c2ccccc2)cc1F`, the cell number change was 10.3%. On to `Cn1c(=O)c2c(nc(NCc3cccnc3)n2Cc2ccc(Cl)cc2)n(C)c1=O`, for which the cell number change worked out at 137%. Moreover, the AC50 under setting [1] was 0.411 µM [rising, partial curve, poor fit]. The concentration at half-maximal activity (AC50) under setting [2] was 0.461 µM [rising, full curve]. As for `NC(=O)/C(=N\OC(=O)c1ccco1)c1nc(-c2ccc(Br)cc2)cs1`, the cell number change came to 1.38%. Moreover, the concentration at half-maximal activity (AC50) under setting [1] is 2.06 µM [rising, partial curve, poor fit]. Take `COc1cc(NC(=O)CSc2ncnc3sc4c(c23)CCC(C)C4)c(C(=O)O)cc1OC` (stereo unspecified): the cell number change stood at 4.96%. Also, under setting [2], the half-maximal activity concentration (AC50) was 0.58 µM [falling, single point]. For `CN(C)C(=O)CSc1nnc(-c2ccc(F)cc2)c2ccccc12`, the cell number change was 21.4%. Besides, the AC50 under setting [2] was 1.64 µM [rising, full curve, poor fit]. Regarding `COCCSc1nnc(NC(=O)C2CC(=O)N(c3ccc(C)cc3)C2)s1` (stereo unspecified), the cell number change was -20.7%.

Turning to `c1ccc(Oc2cccc(OCCCn3cncn3)c2)cc1`, the cell number change is -13.6%. The AC50 under setting [2] is 6.51 µM [rising, partial curve, poor fit].
